Experimental data as given in the supplement of paper PMC7666118.
Some of the results follow.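 Rule for the calls: active = dose-dependent thermal stabilisation significant by F-test of dose-response against flat model at 10% FDR; inactive = not significant.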

By UniProt entry, the sequences of proteins in these tests, tags left out. Where a name states a change or a piece, a line headed by the entry shows the natural chain unless it says otherwise.
UniProt Q9P2K5: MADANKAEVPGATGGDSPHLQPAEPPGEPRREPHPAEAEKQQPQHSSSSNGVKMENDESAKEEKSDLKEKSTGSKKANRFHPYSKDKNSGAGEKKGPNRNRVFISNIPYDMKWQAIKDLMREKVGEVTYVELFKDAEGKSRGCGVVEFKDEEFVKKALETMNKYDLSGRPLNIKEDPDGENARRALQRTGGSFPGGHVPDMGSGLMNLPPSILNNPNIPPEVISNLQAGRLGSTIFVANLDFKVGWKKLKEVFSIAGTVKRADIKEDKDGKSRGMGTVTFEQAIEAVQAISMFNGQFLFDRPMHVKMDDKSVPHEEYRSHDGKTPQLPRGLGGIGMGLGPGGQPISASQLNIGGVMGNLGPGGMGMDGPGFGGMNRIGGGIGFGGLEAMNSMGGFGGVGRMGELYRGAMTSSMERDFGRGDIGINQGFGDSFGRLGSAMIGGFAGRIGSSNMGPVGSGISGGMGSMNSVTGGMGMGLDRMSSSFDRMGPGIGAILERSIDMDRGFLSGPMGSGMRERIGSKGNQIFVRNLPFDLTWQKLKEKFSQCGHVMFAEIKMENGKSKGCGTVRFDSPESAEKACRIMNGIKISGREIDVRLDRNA
UniProt Q8IVH4: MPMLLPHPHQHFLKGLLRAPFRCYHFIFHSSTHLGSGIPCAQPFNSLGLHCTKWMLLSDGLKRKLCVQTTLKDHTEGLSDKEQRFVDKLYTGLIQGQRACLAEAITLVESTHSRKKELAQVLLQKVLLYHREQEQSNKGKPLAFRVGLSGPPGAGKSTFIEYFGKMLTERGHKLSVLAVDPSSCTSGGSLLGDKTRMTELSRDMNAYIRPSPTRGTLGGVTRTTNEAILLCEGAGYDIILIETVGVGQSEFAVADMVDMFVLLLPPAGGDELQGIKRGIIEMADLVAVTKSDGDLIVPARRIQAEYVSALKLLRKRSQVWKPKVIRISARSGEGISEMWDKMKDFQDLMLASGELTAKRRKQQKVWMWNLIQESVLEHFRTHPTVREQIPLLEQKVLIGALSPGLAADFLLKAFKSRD
UniProt Q8NB16: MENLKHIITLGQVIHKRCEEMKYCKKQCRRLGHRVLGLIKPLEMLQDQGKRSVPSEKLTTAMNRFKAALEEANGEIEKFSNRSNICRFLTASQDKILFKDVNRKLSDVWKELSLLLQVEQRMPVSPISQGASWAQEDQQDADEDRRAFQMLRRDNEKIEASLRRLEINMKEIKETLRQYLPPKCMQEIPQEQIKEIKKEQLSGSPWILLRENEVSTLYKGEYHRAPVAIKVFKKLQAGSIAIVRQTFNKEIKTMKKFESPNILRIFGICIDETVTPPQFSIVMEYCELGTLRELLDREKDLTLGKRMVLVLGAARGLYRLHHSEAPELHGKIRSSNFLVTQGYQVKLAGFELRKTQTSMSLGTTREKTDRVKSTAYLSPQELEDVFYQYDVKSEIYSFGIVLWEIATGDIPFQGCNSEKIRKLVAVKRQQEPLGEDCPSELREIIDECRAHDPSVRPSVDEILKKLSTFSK
UniProt Q03426, whole entry: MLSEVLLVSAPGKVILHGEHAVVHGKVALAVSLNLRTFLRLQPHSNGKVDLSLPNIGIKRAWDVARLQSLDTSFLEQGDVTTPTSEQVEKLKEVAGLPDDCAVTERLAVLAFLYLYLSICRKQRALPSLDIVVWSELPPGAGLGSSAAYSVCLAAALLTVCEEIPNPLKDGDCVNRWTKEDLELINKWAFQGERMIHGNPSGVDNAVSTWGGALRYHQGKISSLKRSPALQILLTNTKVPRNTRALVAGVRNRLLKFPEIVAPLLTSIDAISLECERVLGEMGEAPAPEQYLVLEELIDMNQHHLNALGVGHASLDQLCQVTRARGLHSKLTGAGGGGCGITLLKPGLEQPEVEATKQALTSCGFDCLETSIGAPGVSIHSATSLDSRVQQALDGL
UniProt Q14566: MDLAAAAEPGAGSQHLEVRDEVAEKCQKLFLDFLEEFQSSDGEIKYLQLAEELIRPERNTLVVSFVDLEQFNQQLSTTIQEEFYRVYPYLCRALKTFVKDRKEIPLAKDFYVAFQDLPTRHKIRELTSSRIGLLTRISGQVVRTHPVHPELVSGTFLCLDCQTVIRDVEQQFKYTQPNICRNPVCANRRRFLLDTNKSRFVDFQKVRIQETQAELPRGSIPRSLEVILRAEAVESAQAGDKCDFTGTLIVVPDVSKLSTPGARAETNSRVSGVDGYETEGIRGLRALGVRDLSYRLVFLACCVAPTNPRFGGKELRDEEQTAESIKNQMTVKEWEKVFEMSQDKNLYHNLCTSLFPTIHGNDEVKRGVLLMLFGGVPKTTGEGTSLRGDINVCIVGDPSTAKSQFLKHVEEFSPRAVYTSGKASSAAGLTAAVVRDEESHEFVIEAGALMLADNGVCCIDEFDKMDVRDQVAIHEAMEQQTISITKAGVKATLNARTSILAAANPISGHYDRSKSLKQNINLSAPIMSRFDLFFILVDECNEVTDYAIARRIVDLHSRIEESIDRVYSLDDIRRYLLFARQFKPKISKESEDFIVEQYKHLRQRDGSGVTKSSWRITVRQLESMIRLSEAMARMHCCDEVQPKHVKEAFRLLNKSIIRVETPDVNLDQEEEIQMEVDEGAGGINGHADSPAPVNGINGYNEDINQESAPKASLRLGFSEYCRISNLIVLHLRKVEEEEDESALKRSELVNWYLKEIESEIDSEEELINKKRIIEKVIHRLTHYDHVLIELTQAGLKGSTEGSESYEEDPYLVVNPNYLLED
UniProt Q8WZA0: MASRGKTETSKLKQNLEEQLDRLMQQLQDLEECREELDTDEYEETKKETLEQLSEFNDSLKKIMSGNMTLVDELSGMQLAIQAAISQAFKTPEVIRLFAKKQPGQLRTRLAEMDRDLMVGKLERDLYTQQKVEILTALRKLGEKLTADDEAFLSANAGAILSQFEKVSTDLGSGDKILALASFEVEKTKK
UniProt Q15691: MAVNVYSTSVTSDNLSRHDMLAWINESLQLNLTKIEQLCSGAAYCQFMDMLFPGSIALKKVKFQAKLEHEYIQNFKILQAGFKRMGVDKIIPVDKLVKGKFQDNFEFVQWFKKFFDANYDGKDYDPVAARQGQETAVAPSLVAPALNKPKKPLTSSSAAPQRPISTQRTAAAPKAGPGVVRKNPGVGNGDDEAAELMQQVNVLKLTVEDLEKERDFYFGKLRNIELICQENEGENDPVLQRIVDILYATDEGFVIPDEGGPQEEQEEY
UniProt Q9UK45: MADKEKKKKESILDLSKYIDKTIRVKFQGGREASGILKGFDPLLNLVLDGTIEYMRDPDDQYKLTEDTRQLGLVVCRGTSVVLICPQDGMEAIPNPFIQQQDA
UniProt P51948: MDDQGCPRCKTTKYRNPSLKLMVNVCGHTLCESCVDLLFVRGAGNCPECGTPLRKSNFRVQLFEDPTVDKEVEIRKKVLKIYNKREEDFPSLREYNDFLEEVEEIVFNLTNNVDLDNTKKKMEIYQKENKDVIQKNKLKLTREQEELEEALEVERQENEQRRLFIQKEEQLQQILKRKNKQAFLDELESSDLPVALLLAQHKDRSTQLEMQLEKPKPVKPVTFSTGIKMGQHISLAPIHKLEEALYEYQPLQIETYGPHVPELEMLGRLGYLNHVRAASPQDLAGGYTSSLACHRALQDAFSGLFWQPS
UniProt Q14696: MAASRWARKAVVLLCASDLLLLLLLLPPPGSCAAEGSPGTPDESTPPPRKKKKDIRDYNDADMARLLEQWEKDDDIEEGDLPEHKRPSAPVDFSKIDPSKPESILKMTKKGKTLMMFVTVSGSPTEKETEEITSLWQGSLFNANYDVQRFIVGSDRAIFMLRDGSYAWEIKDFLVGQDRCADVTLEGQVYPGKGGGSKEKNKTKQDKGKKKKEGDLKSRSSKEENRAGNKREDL
UniProt P23368: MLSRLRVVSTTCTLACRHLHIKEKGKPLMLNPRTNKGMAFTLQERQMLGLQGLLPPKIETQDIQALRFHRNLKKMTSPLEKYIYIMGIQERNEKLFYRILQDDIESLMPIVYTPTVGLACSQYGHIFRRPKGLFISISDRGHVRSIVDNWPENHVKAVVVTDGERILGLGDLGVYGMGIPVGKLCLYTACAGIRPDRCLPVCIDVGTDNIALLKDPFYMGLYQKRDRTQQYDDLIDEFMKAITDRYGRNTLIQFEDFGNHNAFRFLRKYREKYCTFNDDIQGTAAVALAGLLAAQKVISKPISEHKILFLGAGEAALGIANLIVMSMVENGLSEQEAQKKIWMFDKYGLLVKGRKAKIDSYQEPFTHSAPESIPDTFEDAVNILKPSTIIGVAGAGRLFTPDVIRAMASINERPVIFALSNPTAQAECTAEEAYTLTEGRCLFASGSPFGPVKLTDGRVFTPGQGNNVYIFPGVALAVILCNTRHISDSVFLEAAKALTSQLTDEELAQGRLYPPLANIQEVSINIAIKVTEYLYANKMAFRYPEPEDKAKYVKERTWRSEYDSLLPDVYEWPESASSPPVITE
UniProt Q9BUE0: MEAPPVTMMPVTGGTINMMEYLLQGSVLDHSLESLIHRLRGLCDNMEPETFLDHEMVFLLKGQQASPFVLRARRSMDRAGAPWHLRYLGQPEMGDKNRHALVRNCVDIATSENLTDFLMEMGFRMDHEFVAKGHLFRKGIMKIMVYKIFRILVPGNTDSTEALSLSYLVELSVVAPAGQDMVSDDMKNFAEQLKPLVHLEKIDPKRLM
UniProt Q13064: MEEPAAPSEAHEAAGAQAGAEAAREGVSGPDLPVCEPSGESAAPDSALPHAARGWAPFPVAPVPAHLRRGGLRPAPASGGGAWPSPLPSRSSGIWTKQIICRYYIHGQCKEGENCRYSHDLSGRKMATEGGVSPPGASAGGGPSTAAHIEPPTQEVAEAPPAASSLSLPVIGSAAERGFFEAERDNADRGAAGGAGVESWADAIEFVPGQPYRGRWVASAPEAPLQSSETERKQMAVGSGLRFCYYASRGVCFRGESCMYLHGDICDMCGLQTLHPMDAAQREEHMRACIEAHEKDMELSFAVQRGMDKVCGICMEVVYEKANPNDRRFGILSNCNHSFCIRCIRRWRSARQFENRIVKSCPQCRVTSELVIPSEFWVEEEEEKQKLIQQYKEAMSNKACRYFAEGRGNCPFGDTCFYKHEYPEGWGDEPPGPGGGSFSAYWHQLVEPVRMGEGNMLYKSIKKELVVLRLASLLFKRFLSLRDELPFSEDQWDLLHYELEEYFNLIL
UniProt Q9BV79: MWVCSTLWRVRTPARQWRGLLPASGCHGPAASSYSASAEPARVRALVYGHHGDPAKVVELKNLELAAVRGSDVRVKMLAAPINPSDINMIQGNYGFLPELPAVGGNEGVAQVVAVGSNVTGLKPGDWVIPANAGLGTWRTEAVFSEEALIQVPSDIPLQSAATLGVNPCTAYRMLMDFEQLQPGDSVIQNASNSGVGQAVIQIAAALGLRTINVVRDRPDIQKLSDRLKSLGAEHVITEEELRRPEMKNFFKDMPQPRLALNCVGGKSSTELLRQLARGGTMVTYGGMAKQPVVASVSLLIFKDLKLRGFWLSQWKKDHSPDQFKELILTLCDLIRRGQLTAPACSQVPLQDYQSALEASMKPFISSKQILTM
UniProt Q9Y316: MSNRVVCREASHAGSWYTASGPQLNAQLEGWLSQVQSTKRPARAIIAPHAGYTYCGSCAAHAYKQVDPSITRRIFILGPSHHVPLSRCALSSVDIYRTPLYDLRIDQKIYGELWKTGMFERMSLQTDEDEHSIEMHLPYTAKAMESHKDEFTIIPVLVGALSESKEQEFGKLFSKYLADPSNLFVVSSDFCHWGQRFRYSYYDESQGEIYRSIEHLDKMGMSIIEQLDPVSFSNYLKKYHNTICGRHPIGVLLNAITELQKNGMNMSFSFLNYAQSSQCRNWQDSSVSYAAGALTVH
UniProt Q8N1G4: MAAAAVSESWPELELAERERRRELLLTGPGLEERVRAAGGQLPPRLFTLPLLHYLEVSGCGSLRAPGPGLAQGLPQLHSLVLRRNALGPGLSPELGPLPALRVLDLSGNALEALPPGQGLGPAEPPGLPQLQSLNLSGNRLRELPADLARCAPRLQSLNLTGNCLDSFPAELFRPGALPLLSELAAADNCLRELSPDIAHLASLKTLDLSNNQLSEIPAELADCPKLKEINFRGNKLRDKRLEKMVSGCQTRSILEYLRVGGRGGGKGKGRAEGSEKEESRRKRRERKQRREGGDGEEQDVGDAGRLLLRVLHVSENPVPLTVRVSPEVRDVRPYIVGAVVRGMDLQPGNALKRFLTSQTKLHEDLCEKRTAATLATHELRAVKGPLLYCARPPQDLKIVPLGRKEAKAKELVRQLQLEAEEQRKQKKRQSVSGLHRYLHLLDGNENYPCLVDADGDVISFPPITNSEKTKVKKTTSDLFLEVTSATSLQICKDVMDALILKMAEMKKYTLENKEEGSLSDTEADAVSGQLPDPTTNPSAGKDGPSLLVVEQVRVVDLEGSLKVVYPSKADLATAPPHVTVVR
UniProt Q9NYP9: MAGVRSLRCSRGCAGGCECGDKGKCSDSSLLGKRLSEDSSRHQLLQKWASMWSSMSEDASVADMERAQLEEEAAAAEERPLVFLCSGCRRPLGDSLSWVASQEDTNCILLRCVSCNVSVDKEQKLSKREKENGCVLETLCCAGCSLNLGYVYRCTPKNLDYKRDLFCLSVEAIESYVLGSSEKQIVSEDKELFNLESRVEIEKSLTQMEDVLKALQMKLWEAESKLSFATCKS

compound: Nc1nc2c(ncn2[C@@H]2O[C@H](COP(=O)(O)OP(=O)(O)OP(=O)(O)O)[C@@H](O)[C@H]2O)c(=O)[nH]1; test: dose-dependent thermal stabilisation call (2D-TPP, DLPTP, 10% FDR) (binary (1 = stabilised)); higher = stabilised by the compound; conditions: system: Jurkat gel-filtered lysate; concentration range 1-500 µM

dose-dependent thermal stabilisation call, active:
MAPK7 (UniProt Q13164) 1
MYEF2 (UniProt Q9P2K5) 1
LUC7L3 (UniProt O95232) 1
MMAA (UniProt Q8IVH4) 1
MARK3 (UniProt P27448) 1
MLKL (UniProt Q8NB16) 1
MRPS27 (UniProt Q92552) 1
MVK (UniProt Q03426) 1
MCM6 (UniProt Q14566) 1
MITD1 (UniProt Q8WV92) 1

dose-dependent thermal stabilisation call, inactive:
MKLN1 (UniProt Q9UL63) 0
MAN2C1 (UniProt Q9NTJ4) 0
MATR3 (UniProt P43243) 0
LZIC (UniProt Q8WZA0) 0
MEF2A (UniProt Q02078) 0
MAPRE1 (UniProt Q15691) 0
MORF4L2 (UniProt Q15014) 0
LSM7 (UniProt Q9UK45) 0
MNAT1 (UniProt P51948) 0
MESDC2 (UniProt Q14696) 0
MAP1A (UniProt P78559) 0
ME2 (UniProt P23368) 0
MED18 (UniProt Q9BUE0) 0
MKRN3 (UniProt Q13064) 0
MECR (UniProt Q9BV79) 0
LYPLA2 (UniProt O95372) 0
MEMO1 (UniProt Q9Y316) 0
MRPL12 (UniProt P52815) 0
MAPK1 (UniProt P28482) 0
LRRC47 (UniProt Q8N1G4) 0
MED13 (UniProt Q9UHV7) 0
MIS18A (UniProt Q9NYP9) 0
MED23 (UniProt Q9ULK4) 0
MGME1 (UniProt Q9BQP7) 0
METTL26 (UniProt Q96S19) 0
LRRFIP1 (UniProt Q32MZ4) 0

Looked up one by one from the entries so far:
dose-dependent thermal stabilisation call, inactive:
ME2 (UniProt P23368) 0
MED18 (UniProt Q9BUE0) 0
